Our source for the binding values is PMC3141038.

Protein sequences, listed by entry. Tags and fused reporters are not part of them.
UniProt Q13838: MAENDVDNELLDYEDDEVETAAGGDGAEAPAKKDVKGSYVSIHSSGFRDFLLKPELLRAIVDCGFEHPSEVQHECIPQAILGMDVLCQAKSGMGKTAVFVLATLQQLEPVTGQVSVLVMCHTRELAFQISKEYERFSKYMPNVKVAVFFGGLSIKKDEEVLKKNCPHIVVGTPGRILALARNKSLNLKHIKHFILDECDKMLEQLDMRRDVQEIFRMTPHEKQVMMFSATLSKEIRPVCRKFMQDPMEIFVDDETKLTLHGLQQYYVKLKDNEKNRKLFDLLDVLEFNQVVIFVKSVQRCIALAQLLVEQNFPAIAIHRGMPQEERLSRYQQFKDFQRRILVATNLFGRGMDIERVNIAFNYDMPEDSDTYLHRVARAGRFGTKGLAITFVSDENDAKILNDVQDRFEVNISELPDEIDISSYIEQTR

The target of test [1] is T1, UIF-6xHis (UniProt Q96QD9).
T1 sequence: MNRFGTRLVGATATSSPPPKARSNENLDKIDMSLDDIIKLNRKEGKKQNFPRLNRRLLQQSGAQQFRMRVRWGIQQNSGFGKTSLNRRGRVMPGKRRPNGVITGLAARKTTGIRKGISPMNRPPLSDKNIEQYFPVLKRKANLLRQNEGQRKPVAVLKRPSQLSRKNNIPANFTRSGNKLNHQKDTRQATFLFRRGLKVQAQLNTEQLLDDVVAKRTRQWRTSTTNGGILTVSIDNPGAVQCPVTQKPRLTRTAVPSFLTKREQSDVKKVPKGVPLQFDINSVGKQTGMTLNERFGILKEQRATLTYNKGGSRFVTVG
In words: pull-down; both purified.

The target of test [2] is T2, UIF-FLAG (UniProt Q96QD9).
T2 sequence: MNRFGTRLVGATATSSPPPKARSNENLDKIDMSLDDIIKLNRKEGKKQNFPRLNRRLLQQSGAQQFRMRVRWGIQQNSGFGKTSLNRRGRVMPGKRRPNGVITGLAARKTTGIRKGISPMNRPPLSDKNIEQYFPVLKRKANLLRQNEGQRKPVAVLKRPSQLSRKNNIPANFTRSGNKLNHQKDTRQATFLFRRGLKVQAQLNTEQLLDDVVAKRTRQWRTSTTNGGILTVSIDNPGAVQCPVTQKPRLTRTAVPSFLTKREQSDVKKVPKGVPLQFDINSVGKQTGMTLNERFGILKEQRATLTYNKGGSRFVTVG
In words: co-IP; 293T cells transfected with pUIF-Flag and pEGFP or pORF57GFP; immunoprecipitation with polyclonal Flag-specific antibody, no RNase; GFP, FLAG and Aly western blots.

The target of test [3] is T2, UIF-FLAG. In words: co-IP; as a3 but in the presence of RNase.
The target in test [4] is T3, ORF57GFP (Kaposi's sarcoma-associated herpesvirus (KSHV)) (UniProt Q2HR75).
T3 sequence: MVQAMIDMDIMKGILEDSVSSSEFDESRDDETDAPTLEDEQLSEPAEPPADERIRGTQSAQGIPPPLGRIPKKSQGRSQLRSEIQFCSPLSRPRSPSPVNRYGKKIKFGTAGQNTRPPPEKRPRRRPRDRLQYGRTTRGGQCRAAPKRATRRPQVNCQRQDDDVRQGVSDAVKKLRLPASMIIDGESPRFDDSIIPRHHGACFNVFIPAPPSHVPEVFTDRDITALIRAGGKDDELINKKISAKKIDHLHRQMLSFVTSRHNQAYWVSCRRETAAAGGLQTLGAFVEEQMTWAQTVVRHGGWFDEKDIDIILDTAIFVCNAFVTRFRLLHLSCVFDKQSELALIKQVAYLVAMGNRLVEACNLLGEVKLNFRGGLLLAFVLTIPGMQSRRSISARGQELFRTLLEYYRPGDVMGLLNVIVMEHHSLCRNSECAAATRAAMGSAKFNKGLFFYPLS
In words: co-IP; dose-dependent co-IP: 293T cells cotransfected with 0.5 ug pORF57GFP, 0.5 ug of pAly-myc or pUIF-Flag and increasing amounts (0, 0.1, 0.5, 0.8, 1.2 ug) of the other; GFP-TRAP-Affinity agarose beads; Myc or Flag western blot. (In general: Immunoblotting shows a protein as a band on a membrane.)

The target of test [5] is T3, ORF57GFP (Kaposi's sarcoma-associated herpesvirus (KSHV)). In words: co-IP; 293T cells cotransfected with pUIF-Flag and pEGFP, pUAP56-myc, pORF57GFP or pORF57PmutGFP; immunoprecipitation with GFP- or UAP56-specific antibodies; FLAG western blot.
Test [6] has as its target T4, GST-ORF57 (KSHV ORF57 fused to GST) (Kaposi's sarcoma-associated herpesvirus (KSHV)) (UniProt Q2HR75).
T4 sequence: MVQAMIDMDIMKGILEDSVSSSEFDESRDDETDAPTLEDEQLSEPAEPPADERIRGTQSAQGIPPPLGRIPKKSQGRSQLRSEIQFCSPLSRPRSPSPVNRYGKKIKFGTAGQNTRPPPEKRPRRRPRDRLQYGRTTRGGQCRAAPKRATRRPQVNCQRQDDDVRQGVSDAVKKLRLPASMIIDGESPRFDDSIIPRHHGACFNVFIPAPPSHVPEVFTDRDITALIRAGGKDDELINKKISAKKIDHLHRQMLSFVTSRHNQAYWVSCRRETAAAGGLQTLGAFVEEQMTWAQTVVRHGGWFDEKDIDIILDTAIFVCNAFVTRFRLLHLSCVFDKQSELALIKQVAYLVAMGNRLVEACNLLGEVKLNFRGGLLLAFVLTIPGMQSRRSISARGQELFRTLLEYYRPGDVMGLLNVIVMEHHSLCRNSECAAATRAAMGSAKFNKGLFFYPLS
In words: pull-down; GST fusion proteins (equal amounts of total protein) immobilised to glutathione agarose beads, incubated with lysates of 293T cells transfected with pUIF-Flag; FLAG western blot; only the target purified.

The target in test [7] is GST-UAP56 (UniProt Q13838). The description is as above.
Test [8] has as its target T5, KSHV ORF57 (endogenous viral protein in reactivated BCBL-1 cells) (Kaposi's sarcoma-associated herpesvirus (KSHV)) (UniProt Q2HR75).
T5 sequence: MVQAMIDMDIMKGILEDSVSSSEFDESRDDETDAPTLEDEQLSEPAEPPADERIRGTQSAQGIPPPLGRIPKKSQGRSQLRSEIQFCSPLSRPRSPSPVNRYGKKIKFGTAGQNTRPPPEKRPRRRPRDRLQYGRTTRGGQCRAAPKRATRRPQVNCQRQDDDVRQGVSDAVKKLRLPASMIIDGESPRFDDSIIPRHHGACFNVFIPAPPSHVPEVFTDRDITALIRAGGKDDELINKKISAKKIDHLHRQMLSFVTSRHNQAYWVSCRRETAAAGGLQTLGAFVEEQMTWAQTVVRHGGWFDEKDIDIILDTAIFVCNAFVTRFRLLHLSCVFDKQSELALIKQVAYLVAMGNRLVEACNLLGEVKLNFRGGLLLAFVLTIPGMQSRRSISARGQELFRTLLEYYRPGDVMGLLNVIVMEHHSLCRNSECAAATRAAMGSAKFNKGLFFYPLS
In words: co-IP; BCBL-1 cells reactivated with TPA (20 ng/ml); immunoprecipitation with ORF57- or UIF-specific antibodies, reciprocal western blots; endogenous proteins.

Test [9] has as its target T4, GST-ORF57 (KSHV ORF57 fused to GST) (Kaposi's sarcoma-associated herpesvirus (KSHV)). In words: pull-down; both purified.
Test [10] concerns the target GST-UAP56 (UniProt Q13838). In words: pull-down; both purified.
Test [11] addresses T4, GST-ORF57 (KSHV ORF57 fused to GST) (Kaposi's sarcoma-associated herpesvirus (KSHV)). In words: pull-down; competitive GST pull-down: GST-ORF57 on beads with a constant amount (1 µg) of Aly-His or UIF-His and increasing amounts (0, 0.5, 1, 2, 3 µg) of the other; both purified.

Results are given in words; binding and its absence hold for the method and conditions named. For some assays here: Binding seen in cells or lysates may run through a third protein. Some results given as binding are weak or reduced against the parent protein; the word gives no strength. For some assays here: Where a sequence is shown, tags or fusion partners need not be part of it.

B1: ORF57-6xHis (protein, UniProt Q2HR75 1-455)
chain: MVQAMIDMDIMKGILEDSVSSSEFDESRDDETDAPTLEDEQLSEPAEPPADERIRGTQSAQGIPPPLGRIPKKSQGRSQLRSEIQFCSPLSRPRSPSPVNRYGKKIKFGTAGQNTRPPPEKRPRRRPRDRLQYGRTTRGGQCRAAPKRATRRPQVNCQRQDDDVRQGVSDAVKKLRLPASMIIDGESPRFDDSIIPRHHGACFNVFIPAPPSHVPEVFTDRDITALIRAGGKDDELINKKISAKKIDHLHRQMLSFVTSRHNQAYWVSCRRETAAAGGLQTLGAFVEEQMTWAQTVVRHGGWFDEKDIDIILDTAIFVCNAFVTRFRLLHLSCVFDKQSELALIKQVAYLVAMGNRLVEACNLLGEVKLNFRGGLLLAFVLTIPGMQSRRSISARGQELFRTLLEYYRPGDVMGLLNVIVMEHHSLCRNSECAAATRAAMGSAKFNKGLFFYPLS
For B1, the binding result in [1] is recorded as “binds”.

B2: ORF57GFP (protein, UniProt Q2HR75 1-455)
chain: MVQAMIDMDIMKGILEDSVSSSEFDESRDDETDAPTLEDEQLSEPAEPPADERIRGTQSAQGIPPPLGRIPKKSQGRSQLRSEIQFCSPLSRPRSPSPVNRYGKKIKFGTAGQNTRPPPEKRPRRRPRDRLQYGRTTRGGQCRAAPKRATRRPQVNCQRQDDDVRQGVSDAVKKLRLPASMIIDGESPRFDDSIIPRHHGACFNVFIPAPPSHVPEVFTDRDITALIRAGGKDDELINKKISAKKIDHLHRQMLSFVTSRHNQAYWVSCRRETAAAGGLQTLGAFVEEQMTWAQTVVRHGGWFDEKDIDIILDTAIFVCNAFVTRFRLLHLSCVFDKQSELALIKQVAYLVAMGNRLVEACNLLGEVKLNFRGGLLLAFVLTIPGMQSRRSISARGQELFRTLLEYYRPGDVMGLLNVIVMEHHSLCRNSECAAATRAAMGSAKFNKGLFFYPLS
Consider B2, for which the binding entry in test [2] and in [3] was “binds” each time.

B3: UIF-FLAG (protein, UniProt Q96QD9 1-318)
chain: MNRFGTRLVGATATSSPPPKARSNENLDKIDMSLDDIIKLNRKEGKKQNFPRLNRRLLQQSGAQQFRMRVRWGIQQNSGFGKTSLNRRGRVMPGKRRPNGVITGLAARKTTGIRKGISPMNRPPLSDKNIEQYFPVLKRKANLLRQNEGQRKPVAVLKRPSQLSRKNNIPANFTRSGNKLNHQKDTRQATFLFRRGLKVQAQLNTEQLLDDVVAKRTRQWRTSTTNGGILTVSIDNPGAVQCPVTQKPRLTRTAVPSFLTKREQSDVKKVPKGVPLQFDINSVGKQTGMTLNERFGILKEQRATLTYNKGGSRFVTVG
As to B3, the binding entry in [4], in [5], in test [6] and in test [7] was “binds” in each case.

B4: UIF (endogenous, BCBL-1) (protein, UniProt Q96QD9 1-318)
chain: MNRFGTRLVGATATSSPPPKARSNENLDKIDMSLDDIIKLNRKEGKKQNFPRLNRRLLQQSGAQQFRMRVRWGIQQNSGFGKTSLNRRGRVMPGKRRPNGVITGLAARKTTGIRKGISPMNRPPLSDKNIEQYFPVLKRKANLLRQNEGQRKPVAVLKRPSQLSRKNNIPANFTRSGNKLNHQKDTRQATFLFRRGLKVQAQLNTEQLLDDVVAKRTRQWRTSTTNGGILTVSIDNPGAVQCPVTQKPRLTRTAVPSFLTKREQSDVKKVPKGVPLQFDINSVGKQTGMTLNERFGILKEQRATLTYNKGGSRFVTVG
For the molecule B4, the binding entry in test [8] was “binds”.

B5: UIF-6xHis (protein, UniProt Q96QD9 1-318)
chain: MNRFGTRLVGATATSSPPPKARSNENLDKIDMSLDDIIKLNRKEGKKQNFPRLNRRLLQQSGAQQFRMRVRWGIQQNSGFGKTSLNRRGRVMPGKRRPNGVITGLAARKTTGIRKGISPMNRPPLSDKNIEQYFPVLKRKANLLRQNEGQRKPVAVLKRPSQLSRKNNIPANFTRSGNKLNHQKDTRQATFLFRRGLKVQAQLNTEQLLDDVVAKRTRQWRTSTTNGGILTVSIDNPGAVQCPVTQKPRLTRTAVPSFLTKREQSDVKKVPKGVPLQFDINSVGKQTGMTLNERFGILKEQRATLTYNKGGSRFVTVG
Take B5: the binding entry in test [9], in [10] and in test [11] was “binds” each time.
